The results in this text go back to publication PMC9360443.

Protein sequences, listed by entry. Tags and fused reporters are not part of them. Lines headed by an entry give the natural chain unless they say otherwise; changes in a name come on top.
UniProt Q9NR28: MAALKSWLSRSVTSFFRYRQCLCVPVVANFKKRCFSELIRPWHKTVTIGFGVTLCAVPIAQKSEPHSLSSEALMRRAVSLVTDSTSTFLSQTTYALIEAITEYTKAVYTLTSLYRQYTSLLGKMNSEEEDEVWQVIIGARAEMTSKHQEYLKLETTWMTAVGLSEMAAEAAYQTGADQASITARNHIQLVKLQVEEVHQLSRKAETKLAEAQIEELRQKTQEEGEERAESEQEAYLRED
UniProt O95835: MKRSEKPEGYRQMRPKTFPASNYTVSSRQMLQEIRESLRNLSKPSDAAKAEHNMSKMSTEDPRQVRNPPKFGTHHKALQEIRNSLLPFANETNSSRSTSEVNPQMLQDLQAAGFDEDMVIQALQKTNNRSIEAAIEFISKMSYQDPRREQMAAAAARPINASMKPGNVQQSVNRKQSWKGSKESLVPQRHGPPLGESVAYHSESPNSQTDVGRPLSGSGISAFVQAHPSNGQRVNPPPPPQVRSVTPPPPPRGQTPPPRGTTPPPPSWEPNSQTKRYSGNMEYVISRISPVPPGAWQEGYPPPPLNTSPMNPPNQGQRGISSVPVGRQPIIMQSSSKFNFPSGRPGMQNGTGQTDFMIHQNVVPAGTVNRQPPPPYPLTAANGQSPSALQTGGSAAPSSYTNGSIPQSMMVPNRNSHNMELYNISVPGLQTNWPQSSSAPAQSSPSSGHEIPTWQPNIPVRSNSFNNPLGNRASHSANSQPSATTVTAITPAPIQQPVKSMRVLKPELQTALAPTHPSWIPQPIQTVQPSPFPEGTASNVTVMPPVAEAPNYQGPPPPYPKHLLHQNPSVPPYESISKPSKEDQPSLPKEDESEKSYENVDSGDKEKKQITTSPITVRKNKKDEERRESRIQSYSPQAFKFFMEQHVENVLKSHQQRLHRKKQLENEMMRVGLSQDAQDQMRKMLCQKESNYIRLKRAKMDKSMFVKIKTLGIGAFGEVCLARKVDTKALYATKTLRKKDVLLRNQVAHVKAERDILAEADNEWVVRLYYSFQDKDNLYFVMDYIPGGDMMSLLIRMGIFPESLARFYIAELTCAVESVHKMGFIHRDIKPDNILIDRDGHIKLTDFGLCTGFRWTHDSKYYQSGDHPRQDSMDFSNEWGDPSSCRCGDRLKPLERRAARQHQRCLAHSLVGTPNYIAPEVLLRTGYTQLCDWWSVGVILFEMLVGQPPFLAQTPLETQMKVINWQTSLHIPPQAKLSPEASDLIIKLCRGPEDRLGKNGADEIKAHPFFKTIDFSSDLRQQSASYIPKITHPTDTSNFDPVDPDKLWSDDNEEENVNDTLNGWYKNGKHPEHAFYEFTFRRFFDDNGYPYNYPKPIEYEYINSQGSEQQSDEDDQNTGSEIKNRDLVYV
UniProt P98170: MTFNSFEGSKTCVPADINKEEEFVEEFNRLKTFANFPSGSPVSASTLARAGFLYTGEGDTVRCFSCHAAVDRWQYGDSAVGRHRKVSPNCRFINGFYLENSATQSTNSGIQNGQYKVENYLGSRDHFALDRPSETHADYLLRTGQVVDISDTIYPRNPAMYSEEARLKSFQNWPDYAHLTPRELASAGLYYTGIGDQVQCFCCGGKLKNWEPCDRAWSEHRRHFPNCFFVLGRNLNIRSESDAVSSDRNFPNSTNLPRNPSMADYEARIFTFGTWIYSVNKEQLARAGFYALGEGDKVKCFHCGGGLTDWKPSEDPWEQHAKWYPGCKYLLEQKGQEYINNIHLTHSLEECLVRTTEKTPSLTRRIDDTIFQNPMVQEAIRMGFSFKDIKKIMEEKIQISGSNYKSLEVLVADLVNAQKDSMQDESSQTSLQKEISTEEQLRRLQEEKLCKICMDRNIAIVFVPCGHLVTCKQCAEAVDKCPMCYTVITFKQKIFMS
UniProt P46937: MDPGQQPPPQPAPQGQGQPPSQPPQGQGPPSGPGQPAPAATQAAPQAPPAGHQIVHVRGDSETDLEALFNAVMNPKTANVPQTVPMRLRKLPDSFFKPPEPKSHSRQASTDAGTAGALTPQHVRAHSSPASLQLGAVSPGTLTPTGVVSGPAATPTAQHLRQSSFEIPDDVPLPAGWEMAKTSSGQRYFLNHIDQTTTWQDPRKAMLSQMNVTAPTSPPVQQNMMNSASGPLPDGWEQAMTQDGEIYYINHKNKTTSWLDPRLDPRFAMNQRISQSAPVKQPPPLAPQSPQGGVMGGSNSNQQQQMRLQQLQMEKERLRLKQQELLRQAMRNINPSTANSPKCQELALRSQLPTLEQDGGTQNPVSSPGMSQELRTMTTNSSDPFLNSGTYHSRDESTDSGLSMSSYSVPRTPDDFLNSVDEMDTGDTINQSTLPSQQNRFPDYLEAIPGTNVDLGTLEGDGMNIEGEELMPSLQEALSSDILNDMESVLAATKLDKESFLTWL
UniProt O00165: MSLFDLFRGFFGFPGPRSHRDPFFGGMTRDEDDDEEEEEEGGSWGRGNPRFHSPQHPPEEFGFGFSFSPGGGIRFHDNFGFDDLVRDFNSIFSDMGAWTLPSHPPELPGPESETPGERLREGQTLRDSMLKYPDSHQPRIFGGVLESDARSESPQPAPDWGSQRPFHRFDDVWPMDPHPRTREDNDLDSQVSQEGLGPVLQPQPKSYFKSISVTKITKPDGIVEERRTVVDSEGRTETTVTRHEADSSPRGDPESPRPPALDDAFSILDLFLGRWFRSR

Results are given in words; binding and its absence hold for the method and conditions named. In cells and extracts the contact can be indirect. These calls come from enrichment with a bait or labelling near it, and not all partners need be listed. For part of these data: A no says only that the protein was not detected with the bait.

Assay [1] deals with GFP-SMAC (human) (UniProt Q9NR28). Put plainly: affinity purification with mass spectrometry; as a12, the sample with FLAG-LATS1^KD co-expressed.
Assay [2] shares this target. In words: affinity purification with mass spectrometry; HEK293 cells (HeLa by the legend of Fig. 4) transfected with GFP-SMAC alone or with FLAG-LATS1^WT or FLAG-LATS1^KD, serum deprived; GFP-SMAC immunoprecipitated; on-bead trypsin digest, LFQ.
For the next assay, the target named is FLAG-LATS1^WT (human) (UniProt O95835). Put plainly: affinity purification with mass spectrometry; A375 cells transfected with FLAG-LATS1 alone, with GFP-SMAC or with GFP-SMAC and RASSF1A, serum-deprived; FLAG-LATS1 as bait; on-bead trypsin digest, LFQ.

Turning to BIRC6 (from UniProt Q9NR09 1-4857), the values for the binding result with GFP-SMAC (human) [1] and with GFP-SMAC (human) [2] were “no binding (only with FLAG-LATS1^KD co-expressed)” and “binds”, respectively.
Turning to XIAP (from UniProt P98170 1-497), the binding entry in the assay with FLAG-LATS1^WT (human) was “binds”.
For YAP (from UniProt P46937 1-504), the binding result is “no binding (only with FLAG-LATS1^KD co-expressed)” in the assay with GFP-SMAC (human) [1] and “binds” in the assay with GFP-SMAC (human) [2].
For the molecule HAX1 (from UniProt O00165 1-279), the binding result with FLAG-LATS1^WT (human) is recorded as “binds”.

B1: TAB3 (protein, UniProt Q8N5C8 1-712)
chain: MAQSSPQLDIQVLHDLRQRFPEIPEGVVSQCMLQNNNNLEACCRALSQESSKYLYMEYHSPDDNRMNRNRLLHINLGIHSPSSYHPGDGAQLNGGRTLVHSSSDGHIDPQHAAGKQLICLVQEPHSAPAVVAATPNYNPFFMNEQNRSAATPPSQPPQQPSSMQTGMNPSAMQGPSPPPPPPSYMHIPRYSTNPITVTVSQNLPSGQTVPRALQILPQIPSNLYGSPGSIYIRQTSQSSSGRQTPQSTPWQSSPQGPVPHYSQRPLPVYPHQQNYQPSQYSPKQQQIPQSAYHSPPPSQCPSPFSSPQHQVQPSQLGHIFMPPSPSTTPPHPYQQGPPSYQKQGSHSVAYLPYTASSLSKGSMKKIEITVEPSQRPGTAINRSPSPISNQPSPRNQHSLYTATTPPSSSPSRGISSQPKPPFSVNPVYITYTQPTGPSCTPSPSPRVIPNPTTVFKITVGRATTENLLNLVDQEERSAAPEPIQPISVIPGSGGEKGSHKYQRSSSSGSDDYAYTQALLLHQRARMERLAKQLKLEKEELERLKSEVNGMEHDLMQRRLRRVSCTTAIPTPEEMTRLRSMNRQLQINVDCTLKEVDLLQSRGNFDPKAMNNFYDNIEPGPVVPPKPSKKDSSDPCTIERKARRISVTSKVQADIHDTQAAAADEHRTGSTQSPRTQPRDEDYEGAPWNCDSCTFLNHPALNRCEQCEMPRYT
In the case of B1, the binding entry in the assay with FLAG-LATS1^WT (human) is reported as “binds”.

B2: TAB1 (protein, UniProt Q15750 1-504)
chain: MAAQRRSLLQSEQQPSWTDDLPLCHLSGVGSASNRSYSADGKGTESHPPEDSWLKFRSENNCFLYGVFNGYDGNRVTNFVAQRLSAELLLGQLNAEHAEADVRRVLLQAFDVVERSFLESIDDALAEKASLQSQLPEGVPQHQLPPQYQKILERLKTLEREISGGAMAVVAVLLNNKLYVANVGTNRALLCKSTVDGLQVTQLNVDHTTENEDELFRLSQLGLDAGKIKQVGIICGQESTRRIGDYKVKYGYTDIDLLSAAKSKPIIAEPEIHGAQPLDGVTGFLVLMSEGLYKALEAAHGPGQANQEIAAMIDTEFAKQTSLDAVAQAVVDRVKRIHSDTFASGGERARFCPRHEDMTLLVRNFGYPLGEMSQPTPSPAPAAGGRVYPVSVPYSSAQSTSKTSVTLSLVMPSQGQMVNGAHSASTLDEATPTLTNQSPTLTLQSTNTHTQSSSSSSDGGLFRSRPAHSLPPGEDGRVEPYVDFAEFYRLWSVDHGEQSVVTAP
Consider B2, for which the binding entry in the assay with FLAG-LATS1^WT (human) is “binds”.

B3: TRAF1 (protein, UniProt Q13077 1-416)
chain: MASSSGSSPRPAPDENEFPFGCPPTVCQDPKEPRALCCAGCLSENPRNGEDQICPKCRGEDLQSISPGSRLRTQEKAHPEVAEAGIGCPFAGVGCSFKGSPQSVQEHEVTSQTSHLNLLLGFMKQWKARLGCGLESGPMALEQNLSDLQLQAAVEVAGDLEVDCYRAPCSESQEELALQHFMKEKLLAELEGKLRVFENIVAVLNKEVEASHLALATSIHQSQLDRERILSLEQRVVELQQTLAQKDQALGKLEQSLRLMEEASFDGTFLWKITNVTRRCHESACGRTVSLFSPAFYTAKYGYKLCLRLYLNGDGTGKRTHLSLFIVIMRGEYDALLPWPFRNKVTFMLLDQNNREHAIDAFRPDLSSASFQRPQSETNVASGCPLFFPLSKLQSPKHAYVKDDTMFLKCIVETST
B3: the binding entry in the assay with FLAG-LATS1^WT (human) is “binds”.
